According to the supplement of paper PMC10735217:
Structures can show the parent of a compound that is named as a salt. The list shows a part of the results. This data set is noisy: repeats of one test often differ as much as different tests do.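 In a drug-repurposing library screen, luminescence reads luciferase driven by eight TEAD-binding elements, stably integrated into human kidney-derived cells. Compounds scoring over five robust Z scores above the plate mean are called hits.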

Test system: HEK293A TEAD-LUC reporter
Assay: TEAD-luciferase reporter activity (YAP activation), robust Z score vs plate; higher = stronger YAP/TEAD activation
Conditions: 24 h

Row | Structure (SMILES) | TEAD-luciferase reporter activity (compound concentration: 200 nM) | TEAD-luciferase reporter activity (compound concentration: 2 uM) | TEAD-luciferase reporter activity (compound concentration: 10 uM)
1 | COc1cc(-c2nc(NC(=O)c3cc4cc(C)cc(C)c4n3CC(=O)O)sc2CCC2CCCCC2)c(OC)cc1Cl | inactive: -0.0653 | inactive: -1.3 | inactive: -2.1
2 | Cc1noc(C)c1-c1cc(C(O)(c2ccccn2)c2ccccn2)c2nc(C3CC3)[nH]c2c1 | active: 7.22 | active: 10.6 | active: 17.9
3 | c1ccc2[nH]ncc2c1 [indazole] |  | inactive: 0.664 | 
4 | c1ccc2[nH]ncc2c1 | inactive: 0.204 |  | inactive: 0.259
5 | Cc1nc2c(OCc3c(Cl)ccc(N(C)C(=O)CNC(=O)/C=C/c4ccc(C(=O)N(C)C)cc4)c3Cl)cccn2c1Br | inactive: -0.257 | inactive: -1.08 | inactive: -1.98
6 | COCCC(=O)NC1CCC(CCN2CCN(c3cccc(C#N)c3)CC2)CC1 (stereo not given) | inactive: -1.16 | inactive: 0.381 | inactive: 1.69
7 | O=C(Nc1nc(-c2cc(Cl)cs2)c(N2CCN(C3CCCCC3)CC2)s1)c1cnc(N2CCC(C(=O)O)CC2)c(Cl)c1 | inactive: -1.25 | inactive: -0.483 | inactive: 0.269
8 | Nc1ccc(S(=O)(=O)Nc2ncccn2)cc1 | inactive: 0.707 | inactive: -0.338 | inactive: -0.342
9 | O=C(O)CCNC(=O)C(CS)Cc1ccccc1 (stereo not given) | inactive: -0.174 | inactive: -0.72 | inactive: 0.978
10 | O=C(c1ccc(O)c(F)c1)N(c1ccc(O)cc1)c1ccc(F)cc1 | inactive: -0.52 | inactive: -1.02 | inactive: 0.361
11 | Cc1cc(OCCCNCC(C)(C)C(N)=O)ccc1Cc1c(O[C@@H]2O[C@H](CO)[C@@H](O)[C@H](O)[C@H]2O)n[nH]c1C(C)C | inactive: -1.51 | inactive: -1.06 | inactive: -0.237
12 | CC(C)(C)C(=O)CN1CC2CN(CCCNc3ccc(C#N)cc3)CC(C1)O2 | inactive: 0.116 | inactive: -0.527 | inactive: -1.59
13 | CCc1ccc(OCc2ccccc2C(=O)Nc2ccc3nc(C)cc(N)c3c2)cc1 | inactive: -1.13 | inactive: 0.476 | inactive: 1.73
14 | CCOC(=O)N(c1cccc(C(=O)c2ccccc2)c1)S(=O)(=O)C(F)(F)F | inactive: -0.69 | inactive: -0.497 | inactive: 4.19
15 | CC(O)C(O)C1CNc2nc(N)[nH]c(=O)c2N1 (stereo not given) [Pharmaprojects No. 1815] | inactive: -0.778 | inactive: 0.457 | inactive: 1.16
16 | CCCCCCCCCCCCCCCCOP(=O)(O)OCC[N+](C)(C)C [Miltefosin] |  |  | inactive: 3.26
17 | C[C@@H](O)[C@H]1C(=O)N2C(C(=O)[O-])=C(SC3Cn4cnc[n+]4C3)[C@H](C)[C@H]12 (stereo not given in full) [Biapenem] | inactive: 1.82 |  | inactive: 1.7
18 | C#CCC(Cc1cnc2nc(N)nc(N)c2n1)c1ccc(C(=O)N[C@@H](CCC(=O)O)C(=O)O)cc1 (stereo not given in full) [Pralatrexate] |  | inactive: -2.06 | 
19 | C#CCC(Cc1cnc2nc(N)nc(N)c2n1)c1ccc(C(=O)N[C@@H](CCC(=O)O)C(=O)O)cc1 (stereo not given in full) [Pralatrexate(Folotyn)] | inactive: -1.39 |  | inactive: 0.436
20 | CN(CCOc1ccc(NS(C)(=O)=O)cc1)CCc1ccc(NS(C)(=O)=O)cc1 [dofetilide] |  | active: 6.37 | 
21 | CN(CCOc1ccc(NS(C)(=O)=O)cc1)CCc1ccc(NS(C)(=O)=O)cc1 | inactive: -1.05 |  | inactive: -0.432
22 | CCC1(O)C(=O)OCc2c1cc1n(c2=O)Cc2c-1nc1cc(F)c(C)c3c1c2C(N)CC3 (stereo not given) [Exatecan Mesylate] | inactive: -1.1 | inactive: -1.45 | inactive: -2.14
23 | O=C(NS(=O)(=O)c1ccc(Cl)cc1)c1ccc(Cl)cc1 | inactive: -0.885 | inactive: -1.04 | inactive: -1.57
24 | COc1cc(/C=N/NC(=O)CSc2cc(C)nc3ccccc23)cc(OC)c1OC | inactive: 1.48 | inactive: -1.36 | inactive: 0.229
25 | O=c1c2ccccc2ncn1CCOc1ccc(-c2ccc(F)cc2F)cc1 [flubichin methanesulfonate] | inactive: -0.078 | inactive: 0.53 | inactive: 0.0955
26 | CCCc1nc(C(C)(C)O)c(C(=O)O)n1Cc1ccc(-c2ccccc2-c2nnn[nH]2)cc1 [Olmesartan] | inactive: -0.568 | inactive: -0.197 | inactive: -0.185
27 | Oc1c(I)cc(I)c(O)c1I [riodoxol] | inactive: -1.13 | inactive: 0.703 | inactive: -0.859
28 | CCCc1ccc(NS(=O)(=O)Cc2ccccc2)c(=O)n1CC(=O)NCc1ccccc1 | inactive: -0.623 | inactive: -1.01 | inactive: 0.602

Row | Structure (SMILES) | TEAD-luciferase reporter activity (compound concentration: 200 nM) | TEAD-luciferase reporter activity (compound concentration: 2 uM) | TEAD-luciferase reporter activity (compound concentration: 10 uM)
29 | N=C(N)NCC1COC2(CCCCC2)O1 (stereo not given) [guanadrel] | inactive: -0.825 | inactive: 1.13 | inactive: -0.169
30 | CN1CCC(N2CCN(C(=O)[C@H](NC(=O)c3ccc4cc[nH]c4c3)c3ccccc3)CC2)CC1 | inactive: -0.631 | inactive: 3.13 | inactive: -0.632
31 | O=C(Nc1cc(Oc2cc(F)c(NC(=O)C3(C(=O)Nc4ccc(F)cc4)CC3)cc2F)ccn1)C1CC1 [Altiratinib] | inactive: -0.526 | inactive: 1.8 | inactive: -2.71
32 | CCCc1ncc(C(=O)O)s1 | inactive: -0.533 | inactive: -0.552 | inactive: 1.19
33 | NC[C@@H]1O[C@@H](O[C@@H]2[C@@H](O[C@@H]3O[C@H](CO)[C@@H](O)[C@H]3O)[C@H](O)[C@@H](N)C[C@H]2N)[C@@H](N)[C@H](O)[C@H]1O [Ribostamycin Sulfate] | inactive: 3.82 | inactive: -1.07 | inactive: -0.543
34 | CN(C)CCCNc1c2ccccc2nc2cccc([N+](=O)[O-])c12 | inactive: -1.4 | inactive: -3.38 | inactive: -2.79
35 | C[C@@H]1CCCN1CCc1cc2cc(-c3ccc(C#N)cc3)ccc2o1 | inactive: 0.334 | inactive: 0.525 | inactive: -0.516
36 | C[C@@H](C(=O)O)c1ccc2cc(OCc3ccc4ccccc4n3)ccc2c1 | inactive: -1.08 | inactive: 0.0303 | inactive: -0.14
37 | N#C[C@@H]1C[C@@H]2C[C@@H]2N1C(=O)[C@@H](N)[C@@]12C[C@@H]3C[C@@H](C[C@@](O)(C3)C1)C2 [saxagliptin] |  | inactive: -1.53 | 
38 | CC(=O)c1ccc(NS(C)(=O)=O)c(Oc2ccc(F)cc2F)c1 | inactive: 0.816 | inactive: -1.38 | inactive: -0.567
39 | COc1cc(C(=O)OCCN2CCN(CCCN3c4ccccc4Sc4ccc(Cl)cc43)CC2)cc(OC)c1OC | inactive: -1.3 | inactive: -0.917 | inactive: -0.185
40 | Cc1ccc(-c2nc(C#N)c(C#N)[nH]2)cc1 | inactive: -1.57 | inactive: -0.353 | inactive: 1.04
41 | CC[C@H](C)[C@H](NC(=O)[C@@H](N)CCCNC(=N)N)C(=O)N[C@H](C(=O)N1CCC[C@H]1C(=O)N[C@@H](C)C(N)=O)C(C)C [dusquetide] | inactive: -2.26 | inactive: -0.281 | inactive: -0.744
42 | CN(C)CCN(Cc1ccccc1)c1ccccc1 | inactive: 0.937 | inactive: 0.751 | inactive: -0.682
43 | CCCCCC(/C=C/n1ccnc1)OCc1ccccc1 (stereo not given) [midazogrel] | inactive: 4.26 | inactive: -1.31 | inactive: -1.19
44 | CCOC(=O)c1ncc2[nH]c3cccc(OC(C)C)c3c2c1COC | inactive: -0.775 | inactive: 1.74 | inactive: -0.632
45 | CN1CCCC(CN2c3ccccc3Sc3ccccc32)C1 (stereo not given) [Mepazine] | inactive: -0.455 |  | inactive: -0.684
46 | CN(C(=O)c1cc2ccccc2cc1C(=O)C(c1cccc2ccccc12)P(=O)(O)O)C1CCN(C(=O)c2ccc3ccccc3c2)CC1 (stereo not given) | inactive: -1.04 | inactive: 2 | inactive: -1.62
47 | C=C(COC(=O)NC)COC(=O)NC | inactive: 0.867 | inactive: -0.976 | inactive: -0.323
48 | CCCCCCCCCCCCCCCC=O [palmitoyl collagenic acid] | inactive: -0.409 | inactive: -1.41 | inactive: 0.51
49 | COc1cc(N)c(Cl)cc1C(=O)N[C@@H]1CCN(CCC(=O)Nc2cccc3ncccc23)C[C@@H]1OC | inactive: -1.17 | inactive: -1.47 | inactive: 0.239
50 | COc1ccc(C[C@@H](C)[C@@H](C)Cc2ccc(OC)c(OC)c2)cc1OC [terameprocol] | inactive: -0.0798 | active: 5.01 | inactive: -1.41
51 | CNC(=O)[C@H](C/C=C/c1ccc(N(C)c2ncccn2)cc1)NC(=O)c1ccccc1 | inactive: -0.826 | inactive: -0.253 | inactive: -0.835
52 | CC1=NN(c2ccc(C)c(C)c2)C(=O)/C1=N\Nc1cccc(-c2cccc(C(=O)O)c2)c1O [eltrombopag olamine] | inactive: -0.655 | inactive: 0.302 | inactive: 2.38
53 | COc1cc2nc(N3CCN(C(=O)C4CCCC4)CC3)nc(N)c2cc1OC | inactive: -1.32 | inactive: -0.252 | inactive: -0.168
54 | COc1ccc(NS(=O)(=O)c2ccc(N=Nc3ccc(O)c(C(=O)O)c3)cc2)nn1 [Salazodine] | inactive: 0.0355 | inactive: -1.2 | inactive: 0.204
55 | CCCCn1c(=O)[nH]c(=O)c2c1ncn2CCC(C)C | inactive: -0.724 | inactive: -0.696 | inactive: -0.362

Quoted at random: three records from the list
Row | Structure (SMILES) | TEAD-luciferase reporter activity (compound concentration: 200 nM) | TEAD-luciferase reporter activity (compound concentration: 2 uM) | TEAD-luciferase reporter activity (compound concentration: 10 uM)
42 | CN(C)CCN(Cc1ccccc1)c1ccccc1 | inactive: 0.937 | inactive: 0.751 | inactive: -0.682
47 | C=C(COC(=O)NC)COC(=O)NC | inactive: 0.867 | inactive: -0.976 | inactive: -0.323
43 | CCCCCC(/C=C/n1ccnc1)OCc1ccccc1 (stereo not given) [midazogrel] | inactive: 4.26 | inactive: -1.31 | inactive: -1.19
